The whole screen tested about 330,000 compounds, of which about 1,000 (0.3%) were called active. This list was built around the results that the source calls inconclusive (neither active nor inactive); the mix of calls is not that of the screen. Calls come from the whole dose curve; as a rule, active = well fitted inhibition curve with a large enough effect; inconclusive = small, poorly fitted or top-dose-only effect; inactive = no such curve, though single readings can be large or run the other way; tested in mouse RAW 264.7 cells. Potencies beside an inconclusive call are fits to weak or partial responses and may not hold up.
Assay: qHTS for Inhibitors of Cell Surface uPA Generation; note: nearly all actives have a fitted effect of over 55% in size
Details: cell surface uPA generation assay; series mostly up to 38.3 µM
Summary of the method: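 Intracellular ATP by ATPlite luminescence serves as read-out: inhibited cell-surface uPA generation prevents LF translocation, preserving ATP. Murine RAW 264.7 macrophages were treated 24 h at 37 C with five-fold serial dilutions, up to 38.3 uM final.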
Potency is the fitted concentration of half-maximal effect.

SMILES	Potency
CCNc1ccc(S(=O)(=O)N(C)C)cc1NCC(=O)Nc1ccc(F)c(Cl)c1	inconclusive: 14.1 µM [inhibitor, partial curve, poor fit]
COc1ccc(OCC(=O)Nc2ccc3c(c2)nc(CCN2CCC(C)CC2)n3C)cc1	inactive
O=C1c2ccc3c4c(ccc(c24)C(=O)N1c1cccc(O)c1)C(=O)N(c1cccc(O)c1)C3=O	inconclusive: 6.31 µM [inhibitor, partial curve, poor fit]
CC[C@]1(c2ccccc2OC)ON(c2ccccc2C(F)(F)F)C1=O	inconclusive: 11.2 µM [inhibitor, single point]
CCN1C[C@@H]2[C@@H]3C(=O)N(C)C(=O)[C@@H]3[C@](Cc3ccccc3)(C(=O)OC)N2C1=NCc1ccccc1	inactive
CN(C)C=Nc1ccc2nc3c(cc2c1)[nH]c1ccccc13	inconclusive: 1.41 µM [inhibitor, partial curve, poor fit]
Cn1c(SCC(=O)Nc2ccccc2O)nnc1-c1ccco1	inconclusive: 25.1 µM [inhibitor, single point]
CCOC(=O)C1=C(C)N(c2ccc(C)cc2)C(=O)/C1=C\c1ccc(O)c(OC)c1	inconclusive: 17.8 µM [inhibitor, partial curve, poor fit]
Cc1ccc(-n2nc3ccc(N)cc3n2)cc1Cl	inconclusive: 3.55 µM [inhibitor, partial curve, poor fit]
COc1ccc2c(=O)c(-c3ccccc3)coc2c1	inconclusive: 7.94 µM [inhibitor, partial curve, poor fit]
CCCCOc1ccc(CN(C)c2ncnc(N)n2)cc1	inconclusive: 7.94 µM [inhibitor, single point]
CCn1ccnc1CN1CCCCC1C(=O)Nc1ccc(Oc2cccnc2)cc1 (configuration not stated)	inconclusive: 7.08 µM [inhibitor, partial curve, poor fit]
O=C(N/N=C\c1ccccn1)c1ccccc1O	inactive
O=C(c1cc(=O)[nH]c2ccccc12)N1CCN(S(=O)(=O)c2ccc(Cl)cc2)CC1	inconclusive: 0.316 µM [inhibitor, full curve, poor fit]
Cc1cccc(N(C)c2cc(C)nc3nc(C)nn23)c1	inconclusive: 28.2 µM [inhibitor, single point]
COc1ccc(-c2cn(Cc3ccc(C(N)=O)cc3)c(-c3ccncc3)n2)cc1	inconclusive: 10 µM [inhibitor, partial curve]
COc1ccc(C(=O)N/N=C2\CCS(=O)(=O)c3ccc(F)cc32)cc1OC	inconclusive: 22.4 µM [inhibitor, single point]

Taken from above.
CCOC(=O)C1=C(C)N(c2ccc(C)cc2)C(=O)/C1=C\c1ccc(O)c(OC)c1 – Potency: inconclusive: 17.8 µM [inhibitor, partial curve, poor fit]
O=C1c2ccc3c4c(ccc(c24)C(=O)N1c1cccc(O)c1)C(=O)N(c1cccc(O)c1)C3=O – Potency: inconclusive: 6.31 µM [inhibitor, partial curve, poor fit]
